Results on one compound are retold here after publication PMC6273488, “Synthesis and Biological Evaluation of Benzochromenopyrimidinones as Cholinesterase Inhibitors and Potent Antioxidant, Non-Hepatotoxic Agents for Alzheimer’s Disease” (Molecules, 2016).

A short description of the data set: in vitro. As to conditions: PAMPA, pH 7.4. The protocol:
Penetration across the BBB is an essential property for compounds targeting the CNS. […] The filter membrane of the donor plate was coated with PBL (Polar Brain Lipid, Avanti, AL, USA) in dodecane (4 µL of 20 mg/mL PBL in dodecane) and the acceptor well was filled with 300 µL of PBS pH 7.4 buffer ([…]). Tested compounds were dissolved first in DMSO and that diluted with PBS pH 7.4 to reach the final concentration 100 µM in the donor well. […] 300 µL of the donor solution was added to the donor wells ([…]) and the donor filter plate was carefully put on the acceptor plate so that coated membrane was “in touch” with both donor solution and acceptor buffer. Test compound diffused from the donor well through the lipid membrane (Area = 0.28 cm^2) to the acceptor well. The concentration of the drug in both donor and the acceptor wells was assessed after 3, 4, 5 and 6 h of incubation in quadruplicate using the UV plate reader Synergy HT (Biotek, Winooski, VT, USA) at the maximum absorption wavelength of each compound.
(In general: The PAMPA barrier holds no transporters, so it reflects passive diffusion.)

For orientation: Papp means the rate of passage across a membrane or cell layer, normalised by area and donor concentration.

With `CC(C)NCC(O)COc1ccc(CC(N)=O)cc1` (stereo not shown) [Atenolol], the Papp at 100 µM turned out to be 1.02 ± 0.37 ×10⁻⁶ cm/s.
